Source: publication PMC7862700
This is a selection; strong and weak results do not stand in their true shares. At the low end of the ranking the order means little.

The chains behind the UniProt entries cited, without tags or fusion partners. Where a name states a change or a piece, a line headed by the entry shows the natural chain unless it says otherwise.
UniProt O43186: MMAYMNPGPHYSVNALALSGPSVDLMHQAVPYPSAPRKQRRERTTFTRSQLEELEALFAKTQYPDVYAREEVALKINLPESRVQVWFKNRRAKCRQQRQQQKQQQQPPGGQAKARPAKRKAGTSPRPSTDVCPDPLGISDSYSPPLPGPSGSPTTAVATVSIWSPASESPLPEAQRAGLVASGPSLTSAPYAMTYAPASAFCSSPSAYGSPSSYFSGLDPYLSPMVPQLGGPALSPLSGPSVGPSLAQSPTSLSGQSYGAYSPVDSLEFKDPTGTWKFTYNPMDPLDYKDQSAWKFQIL

target: CRX (UniProt O43186); experiment: DAPPL (digital affinity profiling via proximity ligation, sequencing); conditions: 10 mM Tris-HCl pH 7.5, 50 mM NaCl, 1 mM DTT, 4% glycerol, room temperature, 30 min; GST-TFs on glutathione beads, 16-mer random dsDNA library, 0.1% …; high values mean tight binding; double strand, one strand shown; scale: fold enrichment (6-mer frequency, TF over GST control)

Sequence	binding signal
AATTAC	1.74
TCCGTA	1.21
CAACAC	0.817
TCAAAC	1.14
CATTTG	1.07
AACTTG	0.977
ACTTGG	1.1
TACAGG	1.08
GATGTC	0.814
GAACAA	1.06
AAGCAA	0.978
AGTTTC	0.945
TAATCC	7.84
CTGTTC	1.07
CCGGTC	0.526
TTAAAT	2.92
ACAACT	1.02
TGTTCC	1.21
CTGACC	1.01
AACAAG	0.978

In another format: results already given

| Sequence | binding signal |
| --- | --- |
| TACAGG | 1.08 |
| AGTTTC | 0.945 |
| AACAAG | 0.978 |

Carrying on:

Sequence	binding signal
TGACGG	0.75
TCATCC	1.65
CACAAG	1.01
CATGAT	1.17
CCAACA	0.792
AAAGTT	1.22
ATGTGG	0.971
CCGCTG	0.876
GTTATG	0.891
CCGCCA	1.02
CCGGCC	0.686
TCCGCA	1.35
CACCAA	0.844
TACACT	1.35
TACGGC	1.2
CACTCC	0.935
TGGTCC	0.855
GTTATC	1.24
GCGTCT	0.929
